Experimental findings from the supplement of paper PMC7877785 are described below.

This data set can be described thus: self-splicing fitness, log relative to wild type (ln ratio); higher = more splicing; Tetrahymena group I intron in knt gene, E. coli kanamycin selection, DiMSum; sequences stand for … in CUCUCU…GGAGGGAAAAGUUAUCAGGCAUGCACCUGGUAGCUAGUCUUUAAACCAAUAGAUUGCAUCGGUUUAAAAGGCAAGACCGUCAAAUUGCGGGAAAGGGGUCAACAGCCGUUCAGUACCAAGUCUCAGGGGAAACUUUGAGAUGGCCUUGCAAAGGGUAUGGUAAUAAGCUGACGGACAUGGUCCUAACCACGCAGCCAAGUCCUAAGUCAACAGAUCUUCUGUUGAUAUGGAUGCAGUUCACAGACUAAAUGUCGGUCGGGGAAGAUGUAUUCUUCUCAUAAGAUAUAGUCGGACCUCUCCUUAAUGGGAGCUAGCGGAUGAAGUGAUGCAACACUGGAGCCGCUGGGAACUAAUUUGUAUGCGAAAGUAUAUUGAUUAGUUUUGGAGUACUCGUGGUCG
The gist of the method:
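DiMSum derived fitness as the error-weighted combination of fold changes across replicates, kanamycin versus no kanamycin, normalised to wild type. E. coli BL21(DE3) held the library, which randomised all eight P1ex-region intron nucleotides within the knt kanamycin-resistance gene on pET-22b(+). Six replicate transformations grew overnight at 37°C or 30°C on LB agar with or without 25 μg/mL kanamycin, also containing 100 μg/mL carbenicillin, 50 μM IPTG and 0.2% rhamnose, and pooled colonies were amplicon-sequenced on an Illumina HiSeq 2500.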

± gives the uncertainty stated by the source. The uncertainty is large for many entries.

On to AUAGAGCAAUAUUACGCUGU, for which the “self-splicing fitness (ln)” value (30 °C) was -0.963 ± 0.11 and the “self-splicing fitness (ln)” value (37 °C) turned out to be 0.0295 ± 0.14.
With CUUGAGCAAUAUUACGACUC, the “self-splicing fitness (ln)” value (30 °C) was -2.67 ± 0.69.
As for UCGAAGCAAUAUUACGUAUC, the “self-splicing fitness (ln)” value (37 °C) is -3.47 ± 0.52.
Consider CGGGAGCAAUAUUACGCGCA, for which, under “30 °C”, the “self-splicing fitness (ln)” value is -3.88 ± 1.1.
UUCAAGCAAUAUUACGACCC: the “self-splicing fitness (ln)” value (30 °C) was -2.42 ± 1.2 and the “self-splicing fitness (ln)” value (37 °C) is -0.288 ± 0.52.
Turning to CGGGAGCAAUAUUACGAUGA, the “self-splicing fitness (ln)” value (30 °C) was -3.57 ± 1.
As to CAAGAGCAAUAUUACGAGGA, the “self-splicing fitness (ln)” value by setting is: (30 °C) -3.17 ± 0.33; (37 °C) -2.79 ± 0.44.
Consider UCUUAGCAAUAUUACGGACC, for which the “self-splicing fitness (ln)” value (30 °C) was -3.57 ± 0.55.
As for CCUAAGCAAUAUUACGCUAC, the “self-splicing fitness (ln)” value was -3.77 ± 0.55 (30 °C) and -1.53 ± 0.31 (37 °C).
Take CUCCAGCAAUAUUACGCUCC: for the setting “37 °C”, the “self-splicing fitness (ln)” value was -2.2 ± 1.1.
Consider AGAGAGCAAUAUUACGUUUG, for which the “self-splicing fitness (ln)” value (37 °C) is -3.54 ± 0.74.
Take GCGUAGCAAUAUUACGCCCA: for the setting “37 °C”, the “self-splicing fitness (ln)” value was -0.74 ± 0.81.
Turning to UUGCAGCAAUAUUACGCUCG, the “self-splicing fitness (ln)” value is, setting by setting: (30 °C) -2.83 ± 0.62; (37 °C) -2.06 ± 0.66.
As to GCGGAGCAAUAUUACGCGGU, the “self-splicing fitness (ln)” value (37 °C) was -2.25 ± 0.78.
Still for that read-out and setting: the result for CUGGAGCAAUAUUACGCUGC reads -2.35 ± 0.77.
As to GUAUAGCAAUAUUACGAAAC, the “self-splicing fitness (ln)” value (30 °C) was -2.21 ± 0.79.
On to AAUAAGCAAUAUUACGUCCC, for which the “self-splicing fitness (ln)” value was -0.502 ± 0.17 (30 °C) and 0.393 ± 0.26 (37 °C).
As for GCGGAGCAAUAUUACGAAAA, the “self-splicing fitness (ln)” value runs as follows: (30 °C) -0.135 ± 0.71; (37 °C) -2.36 ± 0.64.
With AGAAAGCAAUAUUACGGAGG, the “self-splicing fitness (ln)” value was -3.33 ± 0.16 (30 °C) and -2.72 ± 0.3 (37 °C).
For the sequence GGAGAGCAAUAUUACGUGGA, the “self-splicing fitness (ln)” value (30 °C) is -5.68 ± 1.
For CCAGAGCAAUAUUACGGUCA, the “self-splicing fitness (ln)” value is -3.91 ± 0.62 (30 °C) and -2.87 ± 0.53 (37 °C).
For UGUAAGCAAUAUUACGUACA, in that order: -0.772 ± 0.098 and -0.557 ± 0.16.
With GGCGAGCAAUAUUACGAAGC, where the note is “37 °C”, the “self-splicing fitness (ln)” value was -1.38 ± 0.69.
The same measure, in the same setting: the value for CAGUAGCAAUAUUACGCCUU was -0.187 ± 0.56.
Consider CCUCAGCAAUAUUACGCUGU, for which the “self-splicing fitness (ln)” value reads like this: (30 °C) -2.84 ± 0.17; (37 °C) -2.05 ± 0.25.
For the sequence CCUGAGCAAUAUUACGAUUA, under “30 °C”, the “self-splicing fitness (ln)” value was -3.35 ± 0.82.
Turning to UACGAGCAAUAUUACGACCG, the “self-splicing fitness (ln)” value (37 °C) is -1.78 ± 1.2.
Still for that read-out and setting: the result for UACGAGCAAUAUUACGAAAC reads -2.77 ± 0.54.
The same measure, in the same setting: the result for CUAUAGCAAUAUUACGAACC reads -0.742 ± 0.65.
For the sequence AUUAAGCAAUAUUACGCGAG, the “self-splicing fitness (ln)” value (30 °C) was -1.27 ± 0.1 and the “self-splicing fitness (ln)” value (37 °C) was -0.38 ± 0.097.
For ACACAGCAAUAUUACGUGAG, in that order: -1.02 ± 0.05 and 0.121 ± 0.074.
On the same counts, the results for UUCUAGCAAUAUUACGGCUA are -3.38 ± 0.63 and -3.86 ± 1.
